Earlier results, collected in patent EP3173421A1, “PEPTIDIC COMPOUNDS USEFUL AS ANTIBACTERIAL AGENTS” (Universitat de Barcelona, priority 2015, dated 2017).
In brackets after ≈: the same amount, converted by molar mass. At least one peptide structure holds a part that was inferred or is arguable (an end, a ring closure or a residue). Where a SMILES comes first, the peptide text is derived from it. Bridges are numbered along the chain shown (N, C = ends). [ ]: non-standard residue; d: D form. The star is where a group is joined. ξ: configuration not given here. Thr(3ξ) = CC(O)[C@H](N)C(=O)O; X1 = CC[C@H](C)CCCCC(=O)*; Dab = NCC[C@H](N)C(=O)O

How the values were obtained:
[1] = test system: Escherichia coli VAL 5; details: E coli VAL 5; comparative examples, extracted from Rabanal et al. 2015; cited from earlier work
[2] = test system: Escherichia coli VAL 10; details: E coli VAL10; comparative examples, extracted from Rabanal et al. 2015; cited from earlier work
[3] = test system: Escherichia coli MAC21a; details: E coli MAC21 a; comparative examples, extracted from Rabanal et al. 2015; cited from earlier work
[4] = test system: Escherichia coli NDM-1; details: E coli NDM-1; comparative examples, extracted from Rabanal et al. 2015; cited from earlier work
[5] = test system: Escherichia coli ATCC 8739; details: E coli ATCC8739 (non-resistant); comparative examples, extracted from Rabanal et al. 2015; cited from earlier work
[6] = test system: Pseudomonas aeruginosa 36a; details: P. aeruginosa 36a; comparative examples, extracted from Rabanal et al. 2015; cited from earlier work
[7] = test system: Pseudomonas aeruginosa 38a; details: P. aeruginosa 38a; comparative examples, extracted from Rabanal et al. 2015; cited from earlier work
[8] = test system: Pseudomonas aeruginosa ATCC 9027; details: P. aeruginosa ATTC9027 (non-resistant); comparative examples, extracted from Rabanal et al. 2015; cited from earlier work
[9] = test system: Staphylococcus aureus ATTC6538; details: S. aureus ATTC6538; comparative examples, extracted from Rabanal et al. 2015; cited from earlier work

CC[C@H](C)CCCCC(=O)N[C@@H](CCN)C(=O)N[C@H](C(=O)N[C@@H](CCN)C(=O)N[C@H]1CCNC(=O)[C@H](C(C)O)NC(=O)[C@H](CCN)NC(=O)[C@H](CCN)NC(=O)[C@H](CC(C)C)NC(=O)[C@@H](Cc2ccccc2)NC(=O)[C@H](CCN)NC1=O)C(C)O (stereo partly drawn) [polymyxin B (8d), Polymyxin B] (X1-[Dab][Thr(3ξ)][Dab][Dab][Dab][dF]L[Dab][Dab][Thr(3ξ)]; lactam 4-C)
MIC [1]: 0.25 µg/mL (≈ 0.208 µM) | MIC [2]: 0.25 µg/mL (≈ 0.208 µM) | MIC [3]: 0.25 µg/mL (≈ 0.208 µM) | MIC [4]: 0.5 µg/mL (≈ 0.415 µM) | MIC [5]: 0.25 to 0.5 µg/mL | MIC [6]: 2 µg/mL (≈ 1.66 µM) | MIC [7]: 1 µg/mL (≈ 0.831 µM) | MIC [8]: 0.25 to 0.5 µg/mL | MIC [9]: >32 µg/mL
